Tested on: femoral artery CTO
Test: MR imaging of CTO with Gd-DTPA, distribution volume score
Format: in vivo, rabbit

O=C([O-])CN(CCN(CC(=O)[O-])CC(=O)O)CCN(CC(=O)[O-])CC(=O)O.[Gd+3] [Gd-DTPA]
distribution volume score (percentage of tissue volume occupied by the agent) (body of the CTO, 12 weeks): 3%
distribution volume score (percentage of tissue volume occupied by the agent) (centre (body) of the CTO, 6 weeks): 18%
distribution volume score (percentage of tissue volume occupied by the agent) (exit region of the CTO, 6 weeks): 4%
distribution volume score (percentage of tissue volume occupied by the agent) (exit region of the CTO, 12 weeks): 6%

Source: patent US8512311B2, “Augmentation of intraluminal microvessel formation to facilitate guide wire crossing in chronic total occlusions” (priority 2004, dated 2013)
